# PubChem BioAssay AID504834 (National Center for Advancing Translational Sciences (NCATS), 2011)
# The campaign covered roughly 320,000 compounds. About 22,000 (6.9%) were called active. The shares of active, inactive and inconclusive entries below differ from those in the screen. Calls follow the shape of the dose curve; as a rule, active = well fitted inhibition curve with a large enough effect; inconclusive = small, poorly fitted or top-dose-only effect, or another doubt; inactive = no such curve, though single readings can be large or run the other way. Potencies beside an inconclusive call are fits to weak or partial responses and may not hold up.
# Test: Primary qHTS for delayed death inhibitors of the malarial parasite plastid, 96 hour incubation
# Settings: P. falciparum luciferase reporter growth; series mostly up to 28.7 µM
# Procedure, shortened: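 Cell-based qHTS: luciferase-tagged P. falciparum in erythrocytes (2% hematocrit, 0.05% parasitemia final) incubated with compounds for 96 hours, 37 C, 5% CO2; luciferase detection reagent then added and luminescence measured.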
# Potency is read from the fitted curve at half-maximal effect.
row,SMILES,Potency
1,CC(NCc1cccnc1)c1ccccc1 (centres undefined),"inconclusive: 10.4 µM [inhibitor, single point]"
2,COCCN1CCN(C(=O)c2cc(COc3ccc(F)cc3F)on2)CC1,"inconclusive: 18.5 µM [inhibitor, single point]"
3,O=S(=O)(CCN1CCOCC1)c1ccc(Oc2ccc(S(=O)(=O)CCN3CCOCC3)cc2)cc1,"inconclusive: 4.15 µM [inhibitor, single point]"
4,O=C(NCCN1CCOCC1)c1cc(Sc2cccc(Cl)c2)nc2ccccc12,active: 5.22 µM
5,CS(=O)(=O)C1=NSC2=NC(=O)/C(=C\c3ccc(-c4ccccc4)o3)C(=N)N21,"inconclusive: 11.7 µM [inhibitor, single point]"
6,CNc1ccccc1C(C)(C)c1cc(-c2cccc(Br)c2)no1,"inconclusive: 9.28 µM [inhibitor, single point]"
7,COc1ccc(S(=O)(=O)N(C)C)cc1NCC(=O)Nc1ccc(F)cc1F,"inconclusive: 18.5 µM [inhibitor, single point]"
8,COC(=O)[C@@]12CCCCN1[C@H](c1ccc(-c3ccc(F)cc3)cc1)[C@@H]1C(=O)N(C)C(=O)[C@@H]12,active: 13.1 µM
9,COc1ccc(OC)c(NC(=O)c2cccnc2)c1,"inconclusive: 16.5 µM [inhibitor, single point]"
10,CCN(CC)S(=O)(=O)c1ccc(N2CCOCC2)c(NC(=O)c2ccc3c(c2)OCCO3)c1,"inconclusive: 6.57 µM [inhibitor, partial curve, poor fit]"
11,CC(C(=O)Nc1ccc(O)c(C(=O)O)c1)N1C(=O)/C(=C/c2cccs2)SC1=S (centres undefined),"inconclusive: 18.5 µM [inhibitor, single point]"
12,CCOc1ccc(-c2nnn(CC(=O)NCc3ccc(C)cc3)n2)cc1,active: 7.38 µM
13,Cc1cc(NS(=O)(=O)c2ccc(NC(=O)C(C)Oc3ccc4c(C)cc(=O)oc4c3)cc2)no1 (centres undefined),"inconclusive: 2.94 µM [inhibitor, full curve, poor fit]"
14,COC(=O)C1=C(c2cccc(OCc3ccccc3)c2)C[C@@H]2CC[C@H]1N2C(=O)NCc1ccccc1C(F)(F)F,"inconclusive: 1.47 µM [inhibitor, full curve]"
15,CCCCc1ccc(NC2=NCCCS2)cc1,"inconclusive: 18.5 µM [inhibitor, single point]"
16,COCCCN(C(=O)c1ccccc1)c1nc(-c2ccc(OC)cc2)cs1,"inconclusive: 10.4 µM [inhibitor, single point]"
17,COc1ccc(/C(C)=N/NC(=O)CNC(=O)c2cccnc2)cc1,"inconclusive: 0.828 µM [inhibitor, partial curve, poor fit]"
18,CN(Cc1cccnc1)C(=O)c1cc(S(=O)(=O)Nc2ccccc2F)ccc1Cl,inactive
19,NC1=NC(=O)/C(=C/c2cn(Cc3ccccc3)c3ccccc23)S1,"inconclusive: 4.15 µM [inhibitor, partial curve, poor fit]"
20,O=C(O)Cn1cc(/C=C2/NC(=O)N(c3ccc(Cl)cc3)C2=O)c2ccccc21,inactive

# Sorted by length of the SMILES (low to high): some entries from above.
row,SMILES,Potency
1,CC(NCc1cccnc1)c1ccccc1 (centres undefined),"inconclusive: 10.4 µM [inhibitor, single point]"
12,CCOc1ccc(-c2nnn(CC(=O)NCc3ccc(C)cc3)n2)cc1,active: 7.38 µM
14,COC(=O)C1=C(c2cccc(OCc3ccccc3)c2)C[C@@H]2CC[C@H]1N2C(=O)NCc1ccccc1C(F)(F)F,"inconclusive: 1.47 µM [inhibitor, full curve]"

# (cont.)

row,SMILES,Potency
1,C/C(=N\NC(=O)CC1N=C(Cc2ccccc2)NNC1=O)c1ccc(Br)cc1 (centres undefined),"inconclusive: 18.5 µM [inhibitor, single point]"
2,COc1ccccc1CNC(=O)C(=O)NCC1OCCN1S(=O)(=O)c1ccc(Br)cc1 (centres undefined),"inconclusive: 4.15 µM [inhibitor, partial curve, poor fit]"
3,Cc1nn(C)c(C(=O)NNC(=S)NC2CCCCC2)c1Cl,"inconclusive: 18.5 µM [inhibitor, partial curve, poor fit]"
4,O=C(CCN1C(=O)c2ccccc2C1=O)NCCC1=CCCCC1,"inconclusive: 18.5 µM [inhibitor, single point]"
5,CC(=O)Nc1ccc(NC(=O)Cc2sc(-c3cccnc3)nc2-c2ccc(C)cc2)cc1,inactive
6,CCOC(=O)c1nnn(-c2nonc2N)c1CSc1nnc(N)s1,"inconclusive: 9.28 µM [inhibitor, single point]"
7,O=C(NCc1nc2ccccc2[nH]1)C1=C[C@@H](c2ccc(Br)cc2)C[C@@H](OCCCCO)O1,"inconclusive: 10.4 µM [inhibitor, single point]"
8,COc1ccc(NC2CCCN(C(=O)COc3ccc(C)cc3)C2)cc1 (centres undefined),"inconclusive: 18.5 µM [inhibitor, single point]"
9,Oc1ccc(-c2cn3ccccc3n2)cc1O,inactive
10,CC1=Nc2cc(C(=O)NCCCOC(C)C)ccc2Sc2ccccc21,"inconclusive: 4.15 µM [inhibitor, full curve]"
11,COC(=O)c1ccccc1NC(=O)CSc1nncn1-c1cccnc1,"inconclusive: 11.7 µM [inhibitor, single point]"
12,Cc1ccc(NC(=O)CN2CCc3ccccc3C2)cc1S(=O)(=O)N1CCOCC1,"inconclusive: 8.28 µM [inhibitor, partial curve]"
13,c1ccc(-c2onc(-c3ccco3)c2-c2ccc3[nH]ccc3c2)cc1,"inconclusive: 16.5 µM [inhibitor, single point]"
14,Cc1nc2cc(C(F)(F)F)ccc2n1CCNc1nc(-c2cc(Cl)c(N)c(Cl)c2)cs1,"inconclusive: 3.7 µM [inhibitor, partial curve, poor fit]"
15,O=C(OCc1ccc([N+](=O)[O-])cc1)c1cc(S(=O)(=O)N2CCCCC2)ccc1N1CCOCC1,active: 10.4 µM
16,O=[N+]([O-])c1ccc2nc(-[n+]3c(-c4ccccc4)cc(-c4ccccc4)cc3-c3ccccc3)[nH]c2c1,"inconclusive: 13.1 µM [inhibitor, single point]"
17,O=C1Nc2ccc(C(F)(F)F)cc2N2CCCC12 (centres undefined),"inconclusive: 18.5 µM [inhibitor, single point]"
18,COc1ccc(O)c(CN2CCCC(N3CCN(c4ccc(F)cc4)CC3)C2)c1 (centres undefined),"inconclusive: 16.5 µM [inhibitor, single point]"
19,O=C(c1cc(COc2c(F)cccc2F)on1)N1CCN(C2CCCCC2)C(=O)C1,"inconclusive: 9.28 µM [inhibitor, partial curve, poor fit]"
